Reference: paper PMC10371097
No constants are given. Whether binding was seen depends on the method and setting. In cells and extracts the contact can be indirect. Some binding calls cover weakened binding; strength is not graded here.

By UniProt entry, the sequences of proteins in these tests, tags left out.
UniProt P35637: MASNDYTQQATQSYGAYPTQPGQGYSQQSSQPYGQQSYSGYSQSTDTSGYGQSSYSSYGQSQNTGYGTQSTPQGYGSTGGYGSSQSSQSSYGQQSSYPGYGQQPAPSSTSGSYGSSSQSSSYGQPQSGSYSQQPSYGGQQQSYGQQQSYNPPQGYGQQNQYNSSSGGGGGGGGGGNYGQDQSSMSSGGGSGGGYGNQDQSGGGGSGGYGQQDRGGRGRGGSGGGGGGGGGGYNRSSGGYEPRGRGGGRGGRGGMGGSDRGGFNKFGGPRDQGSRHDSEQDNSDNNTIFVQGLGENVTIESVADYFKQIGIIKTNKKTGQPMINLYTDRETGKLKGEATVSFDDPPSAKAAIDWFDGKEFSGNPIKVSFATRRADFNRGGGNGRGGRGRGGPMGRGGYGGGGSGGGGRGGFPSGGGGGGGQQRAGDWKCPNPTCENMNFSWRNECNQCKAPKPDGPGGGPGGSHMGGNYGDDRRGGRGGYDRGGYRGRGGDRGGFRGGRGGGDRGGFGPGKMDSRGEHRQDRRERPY
UniProt O14744: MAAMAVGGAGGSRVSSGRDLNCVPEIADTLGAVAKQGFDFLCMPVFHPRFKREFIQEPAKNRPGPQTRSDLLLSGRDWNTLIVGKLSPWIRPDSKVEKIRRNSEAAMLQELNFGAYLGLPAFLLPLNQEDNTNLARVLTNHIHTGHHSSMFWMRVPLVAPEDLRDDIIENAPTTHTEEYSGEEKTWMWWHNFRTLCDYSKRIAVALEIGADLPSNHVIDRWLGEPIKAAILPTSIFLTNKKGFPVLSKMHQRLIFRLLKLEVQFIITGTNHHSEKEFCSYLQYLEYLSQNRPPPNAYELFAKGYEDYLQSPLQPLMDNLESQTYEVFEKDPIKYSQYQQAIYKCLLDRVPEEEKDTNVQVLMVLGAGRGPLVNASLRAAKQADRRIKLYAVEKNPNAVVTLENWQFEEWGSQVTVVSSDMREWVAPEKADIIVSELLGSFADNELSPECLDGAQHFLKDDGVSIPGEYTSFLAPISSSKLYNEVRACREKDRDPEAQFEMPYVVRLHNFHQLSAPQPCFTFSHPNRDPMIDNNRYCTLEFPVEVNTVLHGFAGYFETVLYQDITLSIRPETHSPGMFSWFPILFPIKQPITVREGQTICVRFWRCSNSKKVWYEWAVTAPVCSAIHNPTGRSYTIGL
UniProt Q9BQA1: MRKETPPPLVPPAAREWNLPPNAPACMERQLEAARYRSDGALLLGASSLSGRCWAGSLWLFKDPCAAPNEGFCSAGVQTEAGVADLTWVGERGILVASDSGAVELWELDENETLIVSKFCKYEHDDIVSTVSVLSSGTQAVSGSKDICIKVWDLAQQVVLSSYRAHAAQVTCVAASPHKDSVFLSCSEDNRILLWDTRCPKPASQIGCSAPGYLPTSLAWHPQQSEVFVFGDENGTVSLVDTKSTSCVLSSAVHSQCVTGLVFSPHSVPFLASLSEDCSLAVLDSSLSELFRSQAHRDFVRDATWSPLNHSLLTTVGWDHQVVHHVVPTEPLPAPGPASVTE

How the values were obtained:
[1] = biological target: fused in sarcoma (FUS) (human (endogenous in MCF-7)) (UniProt P35637); experiment: co-IP; MCF-7_RBKO lysates (NP-40 lysis buffer: 20 mM Tris-HCl pH 7.6, 150 mM NaCl, 0.1% NP-40, 1 mM EDTA) with a PRMT5 or a FUS antibody or control IgG overnight at 4°C, protein-G Dyna beads, immunoblot; in Fig. 4H cells treated with DMSO or 500 nM pemrametostat for three days before the FUS co-IP
[2] = biological target: protein arginine methyltransferase 5 (PRMT5) (human (endogenous in MCF-7)) (UniProt O14744); experiment: as above

| binding [1] | binding [2] | Substance |
| --- | --- | --- |
| binds |  | MEP50 (also known as WDR77) (from UniProt Q9BQA1 1-342) |
|  | binds | fused in sarcoma (FUS) (from UniProt P35637 1-526) |
| binds |  | protein arginine methyltransferase 5 (PRMT5) (from UniProt O14744 1-637) (enzyme) |
